Article PMC5969521, “Actin-related proteins regulate the RSC chromatin remodeler by weakening intramolecular interactions of the Sth1 ATPase” (Communications Biology, 2018)
No constants are given. Whether binding was seen depends on the method and setting. Some entries that bind do so weakly or less than the wild type.

Chains of the proteins cited; added tags and fusions are not shown. Residues count along the entry.
UniProt Q05123: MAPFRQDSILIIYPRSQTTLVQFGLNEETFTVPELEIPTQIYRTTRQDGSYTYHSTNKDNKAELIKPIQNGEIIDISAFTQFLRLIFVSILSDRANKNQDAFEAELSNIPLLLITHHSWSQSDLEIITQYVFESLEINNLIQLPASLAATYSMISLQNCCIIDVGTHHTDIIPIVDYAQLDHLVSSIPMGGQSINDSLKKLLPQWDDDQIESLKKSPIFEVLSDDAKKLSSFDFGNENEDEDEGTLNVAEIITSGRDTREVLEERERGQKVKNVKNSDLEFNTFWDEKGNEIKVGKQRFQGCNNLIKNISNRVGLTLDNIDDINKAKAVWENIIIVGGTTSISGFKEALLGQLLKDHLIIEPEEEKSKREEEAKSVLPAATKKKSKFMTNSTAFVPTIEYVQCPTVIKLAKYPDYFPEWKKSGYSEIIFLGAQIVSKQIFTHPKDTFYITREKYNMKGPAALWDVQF
UniProt P32597, residues 388-1097: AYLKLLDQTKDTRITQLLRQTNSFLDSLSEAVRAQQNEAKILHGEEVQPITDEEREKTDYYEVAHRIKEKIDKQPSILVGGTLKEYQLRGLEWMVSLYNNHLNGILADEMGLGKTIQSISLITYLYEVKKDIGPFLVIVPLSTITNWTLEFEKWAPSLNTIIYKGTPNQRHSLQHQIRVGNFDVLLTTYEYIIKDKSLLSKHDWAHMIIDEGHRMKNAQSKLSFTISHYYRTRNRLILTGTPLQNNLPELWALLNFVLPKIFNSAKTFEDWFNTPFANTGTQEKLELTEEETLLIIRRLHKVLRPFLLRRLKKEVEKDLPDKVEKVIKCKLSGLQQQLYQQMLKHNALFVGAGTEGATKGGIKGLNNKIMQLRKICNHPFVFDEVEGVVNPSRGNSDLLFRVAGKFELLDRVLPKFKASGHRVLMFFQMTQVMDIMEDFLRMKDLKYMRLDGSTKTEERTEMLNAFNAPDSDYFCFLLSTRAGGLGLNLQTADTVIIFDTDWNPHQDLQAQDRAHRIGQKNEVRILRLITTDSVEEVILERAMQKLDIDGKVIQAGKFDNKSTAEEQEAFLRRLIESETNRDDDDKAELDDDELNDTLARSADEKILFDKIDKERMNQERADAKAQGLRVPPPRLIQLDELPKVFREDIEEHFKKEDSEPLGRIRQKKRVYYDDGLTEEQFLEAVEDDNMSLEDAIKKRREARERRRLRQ
UniProt Q12406: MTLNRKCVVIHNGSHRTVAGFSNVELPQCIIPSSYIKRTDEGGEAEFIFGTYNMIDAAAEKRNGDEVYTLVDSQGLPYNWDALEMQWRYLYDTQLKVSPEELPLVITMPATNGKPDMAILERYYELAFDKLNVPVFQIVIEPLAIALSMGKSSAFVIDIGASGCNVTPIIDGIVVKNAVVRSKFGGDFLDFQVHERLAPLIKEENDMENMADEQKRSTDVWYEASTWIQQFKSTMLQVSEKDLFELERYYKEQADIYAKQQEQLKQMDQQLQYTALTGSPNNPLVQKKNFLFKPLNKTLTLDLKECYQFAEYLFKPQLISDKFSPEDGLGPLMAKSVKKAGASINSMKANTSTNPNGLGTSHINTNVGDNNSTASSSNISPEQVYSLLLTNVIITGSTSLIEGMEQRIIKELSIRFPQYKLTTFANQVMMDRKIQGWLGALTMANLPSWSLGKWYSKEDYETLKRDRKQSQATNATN

Key:
Arp9 (budding yeast) = Arp9 (budding yeast) (UniProt Q05123); test: crystal structure; Rtt102-Arp7/9 at 10 mg/mL incubated with 1 mM ATP; 20% PEG 3350, ammonium sulfate, 16 °C; 3.25 Å, two copies of the complex in the P1 cell; both purified
[1] = target: Sth1_(388–1097) (budding yeast) (UniProt P32597); test: SEC-MALS; Sth1_(388–1097) (100 μM for the sample with DNA) with or without the 20-bp DNA duplex; TSKgel SuperSW2000 column, DAWN HELEOS MALS detector; both purified

## Arp7 (from UniProt Q12406 1-477)
Arp9 (budding yeast)
  binding: binds

## Sth1_(388–1097) (from UniProt P32597 388-1097) (domain or fragment)
[1]
  binding: no binding

B1: Rtt102 (protein, UniProt P53330 1-157)
chain: MDPQTLITKANKVSYYGNPTSKESWRYDWYQPSKVSSNVQQPQQQLGDMENNLEKYPFRYKTWLRNQEDEKNLQRESCEDILDLKEFDRRILKKSLMTSHTKGDTSKATGAPSANQGDEALSVDDIRGAVGNSEAIPGLSAGVNNDNTKESKDVKMN
Arp9 (budding yeast)
  binding: binds
